Measurements: publication PMC2679751
These are yes or no findings as the source states them, for the method shown. Binding seen in cells or lysates may run through a third protein. Sequences can lack the tags named with a protein. Values belong to the binder of their own block, whether it stands above or below them.

Molecular target: GST alone (glutathione S-transferase)
Assay: pull-down; NCS-1-GST fusion protein (or GST alone) on glutathione sepharose beads incubated with bacterial lysates expressing S-tagged zebrafish NBPs; Western blot with HRP-conjugated S-tag antibody; only the target purified

- binding: no binding
B1: S-tagged zebrafish Pi4kβ (residues 1-423) (domain or fragment, UniProt Q49GP3 1-423)
chain: MGDTELELSPTHLEELQKSPSTSTTSSLSLPSSPSSGPHPLTSSSPSTSEGLPTSSPPLDVISEGLGELSLVIDTEVAKKACQEVLQKVKFLKGDGEVSSASSEPILANGTAHPEANDGGQPPKISEEEVEPIKSVRRRQKNNSSKQSWLLRLFESKLFDISMAISYLYNSKEPGVQAYIGNRLFSFRNEDVDFYLPQLLNMYIHMDEDVGDAIKPYVVYRCRQSINFSLQCAWLLGAYSSDMHISTQRHSRGTKLRKLILSDELKPSSQRIRREVPQPPPPYPPPLHHGPGMSEHSLSPSKRTHQRSKSDATVSISLSSNLKRTASNPKVETSQDEPVRLTPQREFIKSLMGIGKRLATLPTKEQKTQRLISELSLLNHKLPARVWLPTAAFDHHVVRVPHTQAVVLNSKDKAPYLIYVEVL

- binding: no binding
B2: S-tagged zebrafish Dan (residues 1-183) (protein, UniProt Q6NZ13 20-183)
chain: APHAHINRLALFPDKSAWCEAKNITQIVGHTGCTPRSIQNRACLGQCFSYSVPNTFPQSTESLVHCDSCMPAQTQWEVVTLDCSGSDEAPRVDKLVERILHCSCQSCSKESSQEGALLQLYPHEGAQDLPSLPDATHTHPQHAHMQADQRDADAHLDMHAPEAG

- binding: no binding
B3: S-tagged zebrafish Hint2 (residues 1-161) (protein, UniProt A3KP93 1-161)
chain: MTACGVLLTRQLLPFGRGLWRVLSVKSCYSTINDEVRLAQEASKKYGKLEPTIFTKIIDKTVPAVIIYEDDKCLAFRDVNPQAPVHYLVIPRIPIPRISEAHDEDSLILGHLLVVAKNIAKKEGLAEGYRVVINDGKNGAQSVYHLHIHVLGGRQMKWPPG

- binding: no binding
B4: S-tagged zebrafish Pink1 (residues 1-574) (protein, UniProt Q5PRB2 1-574)
chain: MSVKHVLSRGLELGRSVFQLGLLKPAGRVAAKFRGERLRVSRPTRTVQPQTFLPGRYRFFRLSVSGLAAQLQSGAFRRVIGGGSARNRAVFLAFGVGLGLIEQEQEEDRTSAALCQEIQAVFRKKKFQSLPKPFTSGYRLEDYVIGKQIGKGCNAAVYEAAAPFAPPVESKKCSLVELNQKEAEDDNKKEEPLRLSASPSFPLAMKMMWNIGAGSSSDAILRSMSMELVPSCPQALRKEQGELTLNGHFGAVPKRLSAHPNVITVYRAFTAEVPLLPGAREEYPDVLPTRLNPHGLGSNRTLFLVMKNYPCTLRQYLEVCVPKRTQASLMFLQLLEGVDHLCRQNIAHRDLKSDNILLEFDNTGCPRLVITDFGCCLAEDSGLKLPFSSWWVNRGGNSCLMAPEVSTAVPGPGVVIDYSKADVWAVGAIAYELFGQPNPFYTLESRSYQEKQLPALPAAAPDDVQLVVKLLLRKNPHKRPSARVAANILHISLWGRRVLMGLDKVQMAEMMAWLQCQSAVVLLKGRGRDQSSVEAELQRSFLANIELEDLRTAVSFMTYERKQWRSLLMSNTQP
